Laboratory results as given in US20180078476A1, “Method of Increasing Uptake of Washfastness of Hair Health Compounds” (The Procter & Gamble Company, priority 2016, published 2018).

Test: Uptake of compounds by hair from aqueous solution (UPLC before and after treatment)
Conditions: 5-10 mL of aq. 0.1-0.2 wt % solution, pH 7, shaken with 1 g of hair for 5 minutes; concentration by UPLC before and after

| SMILES | % Uptake |
| --- | --- |
| O=C(O)c1cccnc1 [A, reference compound] | 0% |
| NC(=O)c1cccnc1 [B, reference compound] | 9% |
| NCCCNC(=O)c1cccnc1 [C] | 20% |
| C[N+](C)(CCCN)CCCNC(=O)c1cccnc1 [D] | 49% |
| CC(C)(CO)[C@@H](O)C(=O)NCCC(=O)NCc1ccc(O)cc1 [Example E, reference compound] | 0% |
| C[n+]1ccc(CNC(=O)CCNC(=O)[C@H](O)C(C)(C)CO)cc1.[Br-] [F] | 2% |
| CC(C)(CO)[C@@H](O)C(=O)NCCC(=O)NCc1cc[n+](CCCN)cc1.[Br-] [G, reference compound] | 13% |
| Cc1c(C)c2c(c(C)c1O)CC[C@@](C)(C(=O)O)O2 [H] | 0% |
| Cc1c(C)c2c(c(C)c1O)CC[C@@](C)(C(=O)NCCCN(C)C)O2 [I] | 44.4% |
